For 42 sequences, binding signal results are on record in article PMC7819943, “Rice protein-binding microarrays: a tool to detect cis-acting elements near promoter regions in rice”.

Some of the results follow.

The target of the test is T1, OsSMF1 (Oryza sativa, UniProt Q6ZLB0 1-436).
T1 sequence: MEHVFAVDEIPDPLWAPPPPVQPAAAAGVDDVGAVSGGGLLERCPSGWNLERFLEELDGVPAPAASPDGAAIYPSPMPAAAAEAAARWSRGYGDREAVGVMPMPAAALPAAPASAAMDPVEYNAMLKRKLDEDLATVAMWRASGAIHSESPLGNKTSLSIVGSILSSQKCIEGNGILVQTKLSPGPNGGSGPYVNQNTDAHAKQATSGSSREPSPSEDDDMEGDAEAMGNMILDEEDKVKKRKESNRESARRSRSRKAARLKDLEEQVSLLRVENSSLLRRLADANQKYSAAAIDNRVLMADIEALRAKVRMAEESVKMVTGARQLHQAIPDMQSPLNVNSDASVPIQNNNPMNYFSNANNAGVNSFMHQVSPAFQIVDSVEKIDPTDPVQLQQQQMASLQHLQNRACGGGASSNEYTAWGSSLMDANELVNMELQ
The test can be described thus: protein-binding microarray (RPBM); PBS, 2% BSA, 51.3 ng/ul salmon testes DNA, 50 uM zinc acetate, 200 nM TF, 25 C, 1 h; high values mean tight binding. Conditions: protein: recombinant; tags: N-terminal polyhistidine and DsRed monomer fusion (pET32a); chain copies: 2; label: CyDye5-dUTP incorporated in the synthesized complementary strand; 3' TTTTT single-stranded linker to array surface; dsDNA, one strand shown. The method, boiled down:
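In PBS with 2% BSA, salmon testes DNA and 50 µM zinc acetate, 200 nM protein was incubated on a custom Agilent array at 25 °C for 1 h and then washed off. The array had been made double-stranded by primer extension with Cy5-dUTP and blocked with 2% BSA. The proteins were transcription factors fused N-terminally to polyhistidine and DsRed, expressed in E. coli BL21-CodonPlus and purified on Ni–NTA. The binding signal is per-feature fluorescence intensity (arbitrary units) from an Axon 4000B scanner.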
As to “TTACAGCTCACTCCTCTCCTCTCCTGACATGTACACACCCCGGAGTCACCTAGTGCAG”, the binding signal was 4700 fluorescence intensity (a.u.). For “ACTGTGCCATACTACCTTCCGCGGGTGCACAAGCACACCTCGGAGTCACCTAGTGCAG”, the binding signal was 3510 fluorescence intensity (a.u.).

On to “TGCCTGATGTAACCACACGTGGCATTGTAAACCATGCAAACGGAGTCACCTAGTGCAG”, for which the binding signal was 9460 fluorescence intensity (a.u.).

Consider “AAAATCGGTGCAATTTTCCGACACGTGCGAAAGACCTAAACGGAGTCACCTAGTGCAG”, for which the binding signal is 3750 fluorescence intensity (a.u.). Next, “CGAACCGCACGTGCGCGCGCGCTCCACGCACACCCCAAACCGGAGTCACCTAGTGCAG”: 4700 fluorescence intensity (a.u.). Next, “CACCTCAGCTCGCCAGCAGCAACCACGGCGGCGCTTCGGACGGAGTCACCTAGTGCAG”: 14400 fluorescence intensity (a.u.). For “GTGGCAAATAGTTAAAAGCCACCGAAACTGAGACAGCTACCGGAGTCACCTAGTGCAG”, the binding signal was 3600 fluorescence intensity (a.u.). Turning to “TTTATGCACGTTTGAGTTTGTGTACATACGACATTGATCACGGAGTCACCTAGTGCAG”, the binding signal is 3820 fluorescence intensity (a.u.). The result for “TAATAATTCCTACTCCTACATGGCTATATACTACTCCGGACGGAGTCACCTAGTGCAG” reads 3230 fluorescence intensity (a.u.); that for “TAGAGAAACCGGGTCACCAATGATGCCACGCATCGCTGCCCGGAGTCACCTAGTGCAG”, 5820 fluorescence intensity (a.u.); that for “GGGAGGAAGAAGAAAGGGAGAGAGAGGGGATGACATGTGGCGGAGTCACCTAGTGCAG”, 5680 fluorescence intensity (a.u.). The result for “TATGGGTGGTTTCGCTAACGTGGCAGGGGAGGGCGGCGACCGGAGTCACCTAGTGCAG” reads 4900 fluorescence intensity (a.u.). For the sequence “GATTAGTGGGCCCATTTATAGGTAATGACATGTATGTTTTCGGAGTCACCTAGTGCAG”, the binding signal is 4230 fluorescence intensity (a.u.). Next, “CTTCGCTCCGTCGCCGCTCGCCCTTCTCTCCTGGCAATGTCGGAGTCACCTAGTGCAG”: 34000 fluorescence intensity (a.u.); “GCTCAGATCTCTGAATCCACGTGCTCCCCTCCACTGACCCCGGAGTCACCTAGTGCAG”: 5300 fluorescence intensity (a.u.); “GATGGCAAGTAAGTGCACACTCAGCTTTCTTCACTTCATTCGGAGTCACCTAGTGCAG”: 3280 fluorescence intensity (a.u.). The result for “GGCCCGGCTCCTCCTCCTAACGTGGCGGCATGGCGCCATGCGGAGTCACCTAGTGCAG” reads 6010 fluorescence intensity (a.u.). “CACGTCATCGACACGATAGTGACGGAGCACCGCAAGCTCTCGGAGTCACCTAGTGCAG”: the binding signal was 6570 fluorescence intensity (a.u.). The result for “TAAGTCAACCTTGCGTCCCCTGTGCAGGCCACAGTCTGATCGGAGTCACCTAGTGCAG” reads 22300 fluorescence intensity (a.u.).

Regarding “TCATAAACCGTGGCTATCTCGCGTCAGCGTGCATGCTTAACGGAGTCACCTAGTGCAG”, the binding signal was 3660 fluorescence intensity (a.u.).

In the case of “GGTGATTGCATTTGCTGATGTCAGGTATGCCTATTATATTCGGAGTCACCTAGTGCAG”, the binding signal was 14700 fluorescence intensity (a.u.). Next, “GTAGAAGTCTGTATCGTCATGCGTCAACATATCATGATATCGGAGTCACCTAGTGCAG”: 4460 fluorescence intensity (a.u.); “GCATCACGACAGGCCTTCTCTAGCTCCTGCCACGCATGCCCGGAGTCACCTAGTGCAG”: 4770 fluorescence intensity (a.u.). For the sequence “GTGGTTTTGGGAGTTGAGGGATAGGTTATACCCGATTTTACGGAGTCACCTAGTGCAG”, the binding signal was 11700 fluorescence intensity (a.u.). The result for “ACCGATAGGTGTGACACGTCCCCGTCGCCAAGCGCCACCACGGAGTCACCTAGTGCAG” reads 8250 fluorescence intensity (a.u.); that for “AGAAATCTGTTGCCTAGTGCACCGTAACCTGATTGATAATCGGAGTCACCTAGTGCAG”, 3570 fluorescence intensity (a.u.); that for “AAACTGGCACTAACATGAATTAGTTTCGTCAGCGAAATTCCGGAGTCACCTAGTGCAG”, 4280 fluorescence intensity (a.u.). “TCTCACCGAGCTTCTTGGAGAGTAAGAAACTGTGATTCTACGGAGTCACCTAGTGCAG”: the binding signal was 29700 fluorescence intensity (a.u.). The result for “AGATCTTAACTAAAATTCTTTCAGATCAATGTGATTCACGCGGAGTCACCTAGTGCAG” reads 3540 fluorescence intensity (a.u.). Next, “TTCCTCTTCACGTGACTGACATGTGGGCCCCACTCAGCCTCGGAGTCACCTAGTGCAG”: 3600 fluorescence intensity (a.u.); “ACGGCGACCACCGCCTCACCAACCCACGCAACCAATGCCACGGAGTCACCTAGTGCAG”: 3750 fluorescence intensity (a.u.). The result for “CCATGACGGCGCGCGCGGCCCAGAGGTCATCGAACCGCCCCGGAGTCACCTAGTGCAG” reads 3730 fluorescence intensity (a.u.); that for “GCTATCCTACGTGGTGAGCCGTGGCCATGCTCCACGTAGGCGGAGTCACCTAGTGCAG”, 8960 fluorescence intensity (a.u.); that for “GACGCGCACTTGCGCCACGAGAACGTGCCACGTCACGTGTCGGAGTCACCTAGTGCAG”, 28300 fluorescence intensity (a.u.). For “CTACCGCCACGCCTTCGCCACCATCTCCATCGCACCCTTCCGGAGTCACCTAGTGCAG”, the binding signal is 3180 fluorescence intensity (a.u.). Next, “AAACTGGAGACGCCAACACCGTGGTCATCGACGACCTCTTCGGAGTCACCTAGTGCAG”: 3270 fluorescence intensity (a.u.). Next, “TTTAAAGGACTTAAATCTATTTGGTCCTCCGGGGCTGAATCGGAGTCACCTAGTGCAG”: 3140 fluorescence intensity (a.u.); “CGCCCGCCTGCGCGTCATCACCCTACTCCGTCGTCGCTCGCGGAGTCACCTAGTGCAG”: 10300 fluorescence intensity (a.u.); “TCCCGAACGAAAATCGGGGCGTTACACGTACCCATTGACACGGAGTCACCTAGTGCAG”: 3860 fluorescence intensity (a.u.). Next, “CCTTGCTGTCATCTTACGTGCCCGTCCTAGCCTCTGACGACGGAGTCACCTAGTGCAG”: 5220 fluorescence intensity (a.u.); “CCCACATGTCAGCCTCACTCATCATCGGGTCCCGCATCACCGGAGTCACCTAGTGCAG”: 3500 fluorescence intensity (a.u.); “AAAATTATTAACTTCTTGTTTCGATCACCCTAATAAATAGCGGAGTCACCTAGTGCAG”: 41000 fluorescence intensity (a.u.).
